Among the data in article PMC12486400 are binding values, retold here.

The target in the test is T1, recombinant Kazald1-Fc protein (human) (UniProt Q96I82).
T1 sequence: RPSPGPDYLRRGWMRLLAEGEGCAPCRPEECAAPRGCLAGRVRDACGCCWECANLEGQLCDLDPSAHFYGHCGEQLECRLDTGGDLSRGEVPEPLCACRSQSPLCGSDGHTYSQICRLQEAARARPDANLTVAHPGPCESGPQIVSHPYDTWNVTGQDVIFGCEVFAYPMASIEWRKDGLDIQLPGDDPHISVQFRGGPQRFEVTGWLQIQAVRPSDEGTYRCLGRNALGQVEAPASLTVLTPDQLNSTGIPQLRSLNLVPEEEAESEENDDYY
The test is described as follows: pull-down; called Co-IP / immunoprecipitation by the paper: 1 μg Kazald1-Fc (or 1 μg Fc fragment) held on protein A/G magnetic beads overnight at 4 °C, washed with PBS 0.05% Tween-20; lysate of TGFBR1-transfected HEK-293T cells (about 1 mg total protein) added for 1 h at room temperature; blot with anti-TGFBR1; only the target purified.

These are yes or no findings as the source states them, for the method shown. In cells and extracts the contact can be indirect. Some binding calls cover weakened binding; strength is not graded here. Where a sequence is shown, tags or fusion partners need not be part of it.

B1: TGFBR1 (NM_001130916.3), expressed from pcDNA3.1-TGFBR1 (receptor, UniProt P36897-3 34-426)
chain: LQCFCHLCTKDNFTCVTDGLCFVSVTETTDKVIHNSMCIAEIDLIPRDRPFVCAPSSKTGSVTTTYCCNQDHCNKIELPTTGLPLLVQRTIARTIVLQESIGKGRFGEVWRGKWRGEEVAVKIFSSREERSWFREAEIYQTVMLRHENILGFIAADNKDNGTWTQLWLVSDYHEHGSLFDYLNRYTVTVEGMIKLALSTASGLAHLHMEIVGTQGKPAIAHRDLKSKNILVKKNGTCCIADLGLAVRHDSATDTIDIAPNHRVGTKRYMAPEVLDDSINMKHFESFKRADIYAMGLVFWEIARRCSIGGIHEDYQLPYYDLVPSDPSVEEMRKVVCEQKLRPNIPNRWQSCEALRVMAKIMRECWYANGAARLTALRIKKTLSQLSQQEGIKM
Turning to B1, the binding result was “binds”.
